Here are results for 2 molecules from paper PMC5603524, “An alternate mode of oligomerization for E. coli SecA” (Scientific Reports, 2017).

Substitutions are numbered along the chain they refer to. Results are given in words; binding and its absence hold for the method and conditions named.

In experiment [1] the target is SecA-N68∆NC (E. coli) (UniProt P10408). Description: SEC; analytical gel filtration, Superdex 200 HR 10/30, 50 mM Tris-HCl pH 7.5, 100 mM KCl, 1 mM EDTA, 5 mM MgCl2, 5 mM β-mercaptoethanol, room temperature; H6-SecA-N68 applied at up to 4 mg/mL, SecA-N68∆NC at 10 mg/mL; both purified. (In general: SEC sorts molecules by how far they enter the pores of the column.)
The target is the same in experiment [2]. The experiment can be described thus: AUC; sedimentation velocity, 20 °C, 50 mM Tris-HCl pH 7.5, 100 mM KCl, 2 mM EDTA, 5 mM MgCl2, 5 mM TCEP-HCl; SedFit analysis at a range of concentrations; both purified.
Another experiment deals with SecA-N68ΔNC-ER (E. coli) (UniProt P10408). The experiment can be described thus: crystal structure; SecA-N68∆NC with entropy-reducing mutations, bound to Mg2+-ADP; 0.1 M Tris-HCl pH 8.0, 18% PEG 3000, 0.9% cadaverine, 25 °C; space group P21; both purified.

B1: SecA-N68∆NC (domain or fragment, UniProt P10408 15-590)
chain: GADRTLRRMRKVVNIINAMEPEMEKLSDEELKGKTAEFRARLEKGEVLENLIPEAFAVVREASKRVFGMRHFDVQLLGGMVLNERCIAEMRTGEGKTLTATLPAYLNALTGKGVHVVTVNDYLAQRDAENNRPLFEFLGLTVGINLPGMPAPAKREAYAADITYGTNNEYGFDYLRDNMAFSPEERVQRKLHYALVDEVDSILIDEARTPLIISGPAEDSSEMYKRVNKIIPHLIRQEKEDSETFQGEGHFSVDEKSRQVNLTERGLVLIEELLVKEGIMDEGESLYSPANIMLMHHVTAALRAHALFTRDVDYIVKDGEVIIVDEHTGRTMQGRRWSDGLHQAVEAKEGVQIQNENQTLASITFQNYFRLYEKLAGMTGTADTEAFEFSSIYKLDTVVVPTNRPMIRKDLPDLVYMTEAEKIQAIIEDIKERTAKGQPVLVGTISIEKSELVSNELTKAGIKHNVLNAKFHANEAAIVAQAGYPAAVTIATNMAGRGTDIVLGGSWQAEVAALENPTAEQIEKIKADWQVRHDAVLEAGGLHIIGTERHESRRIDNQLRGRSGRQGDAGSSRFYLSM
In the case of B1, the binding result with SecA-N68∆NC (E. coli) [1] was “no binding (tested: 10 mg/mL)”; in the experiment with SecA-N68∆NC (E. coli) [2], “no binding (tested: 4.0 mg/mL)”.

B2: SecA-N68ΔNC-ER (domain or fragment, UniProt P10408 15-590)
chain: B1 chain with E43A, K44A, E46A, E184A, E185A
As to B2, in the experiment with SecA-N68ΔNC-ER (E. coli), the binding entry is “no binding”.
